Values quoted from earlier work, collected in patent US20200315965A1, “NANOEMULSION CONCENTRATE FORMULATIONS AND METHODS” (priority 2019, published 2020).

Conditions: water

In the case of C=C(C)[C@@H]1CCC(C)=C[C@H]1c1c(O)cc(CCCCC)cc1O [CBD, cannabidiol], the aqueous solubility is listed as “approximately 0.013 milligrams per milliliter”.
